In the supplement of paper PMC4604168 (melanoma cell lines):
The list shows a part of the results. Single values are uncertain, as repeats are few or missing.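 The apoptosis fraction was the count of cleaved-PARP antibody-stained nuclei relative to all DNA-stained nuclei, imaged in 1,536-well plates. Screening doses were set so most cells survived, and baseline and induced cleaved-PARP levels vary greatly across cell lines.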

What was measured:
Experiment in all cases: cleaved PARP positive nuclei fraction relative to DMSO control; melanoma cells; higher = more apoptosis
Conditions in all cases: library dose: low library concentration; 72 h
501Mel = test system: 501Mel
A101D = test system: A101D
A2058 = test system: A2058
A375 = test system: A375
C32 = test system: C32
CBRC008 = test system: CBRC008 (line from a melanoma biopsy)
CBRC013 = test system: CBRC013 (line from a melanoma biopsy)
CBRC014 = test system: CBRC014 (line from a melanoma biopsy)
CBRC016 = test system: CBRC016 (line from a melanoma biopsy)
CBRC017 = test system: CBRC017 (line from a melanoma biopsy)
COLO792 = test system: COLO792
COLO800 = test system: COLO800
COLO829 = test system: COLO829
G361 = test system: G361
IPC-298 = test system: IPC-298
IST-MEL1 = test system: IST-MEL1
LB2518-MEL = test system: LB2518-MEL
LOXIMVI = test system: LOXIMVI
MEL-HO = test system: MEL-HO

SMILES | cleaved PARP positive nuclei fraction (501Mel) [%] | cleaved PARP positive nuclei fraction (A101D) [%] | cleaved PARP positive nuclei fraction (A2058) [%] | cleaved PARP positive nuclei fraction (A375) [%] | cleaved PARP positive nuclei fraction (C32) [%] | cleaved PARP positive nuclei fraction (CBRC008) [%] | cleaved PARP positive nuclei fraction (CBRC013) [%] | cleaved PARP positive nuclei fraction (CBRC014) [%] | cleaved PARP positive nuclei fraction (CBRC016) [%] | cleaved PARP positive nuclei fraction (CBRC017) [%] | cleaved PARP positive nuclei fraction (COLO792) [%] | cleaved PARP positive nuclei fraction (COLO800) [%] | cleaved PARP positive nuclei fraction (COLO829) [%] | cleaved PARP positive nuclei fraction (G361) [%] | cleaved PARP positive nuclei fraction (IPC-298) [%] | cleaved PARP positive nuclei fraction (IST-MEL1) [%] | cleaved PARP positive nuclei fraction (LB2518-MEL) [%] | cleaved PARP positive nuclei fraction (LOXIMVI) [%] | cleaved PARP positive nuclei fraction (MEL-HO) [%]
C=C(c1ccc(C(=O)O)cc1)c1cc2c(cc1C)C(C)(C)CCC2(C)C [Bexarotene] + C=CCn1c(=O)c2cnc(Nc3ccc(N4CCN(C)CC4)cc3)nc2n1-c1cccc(C(C)(C)O)n1 [MK1775] (first compound 2 µM, partner dose 0.02 µM) | 154 | 44.7 | 96.6 | 365 | 64.6 | 271 | 74.6 | 146 | 883 | 481 | 61.9 | 109 | 107 | 118 | 48.9 | 68 | 123 | 38.2 | 263
Cc1cc(Nc2cc(N3CCN(C)CC3)nc(/C=C/c3ccccc3)n2)n[nH]1 + O=C(Nc1cccc(Cl)c1)Nc1ncc(CCNc2ncnc3ccsc23)s1 [SNS314] (first compound 0.04 µM, partner dose 0.0008 µM) | 281 | 87 | 78.1 | 63.1 | 83 | 56.8 | 83.9 | 76.7 | 182 | 114 | 90.9 | 97.5 | 118 | 85.4 | 28 | 127 | 121 | 112 | 92
CS(=O)(=O)CCNCc1ccc(-c2ccc3ncnc(Nc4ccc(OCc5cccc(F)c5)c(Cl)c4)c3c2)o1 [lapatinib] + Cc1cc(N2CCOCC2)cc2[nH]c(-c3c(NC[C@@H](O)c4cccc(Cl)c4)cc[nH]c3=O)nc12 [BMS536924] (first compound 0.8 µM, partner dose 0.2 µM) | 185 | 47.5 | 103 | 105 | 219 | 192 | 167 | 112 | 52.7 | 86.5 | 49.8 | 204 | 79.1 | 276 | 49 | 51.8 | 103 | 15.6 | 67.1
Nc1ncn([C@H]2C[C@H](O)[C@@H](CO)O2)c(=O)n1 [decitabine] + NC(=O)Nc1cc(-c2cccc(F)c2)sc1C(=O)N[C@H]1CCCNC1 [AZD7762] (first compound 0.1 µM, partner dose 0.02 µM) | 69 | 105 | 181 | 204 | 181 | 64.5 | 104 | 88.3 | 61.9 | 106 | 88.5 | 241 | 104 | 90.9 | 117 | 20.4 | 48.4 | 130 | 404
C[C@@H](Oc1cc(-c2cnn(C3CCNCC3)c2)cnc1N)c1c(Cl)ccc(F)c1Cl [Crizotinib] + Cn1cncc1[C@@](N)(c1ccc(Cl)cc1)c1ccc2c(c1)c(-c1cccc(Cl)c1)cc(=O)n2C [tipifarnib] (first compound 0.2 µM, partner dose 0.01 µM) | 92.2 | 87.1 | 87.8 | 55.8 | 241 | 117 | 114 | 91.3 | 48.7 | 106 | 67.9 | 98.3 | 33.7 | 124 | 155 | 107 | 127 | 148 | 96.2
CC(C)C[C@H](NC(=O)[C@H](Cc1ccccc1)NC(=O)c1cnccn1)B(O)O [Bortezomib] + CN(C)S(=O)(=O)c1ccc2c(c1)/C(=C/c1cc3c([nH]1)CCCC3)C(=O)N2 [SU6656] (first compound 0.001 µM, partner dose 0.4 µM) | 169 | 229 | 115 | 31.5 | 148 | 535 | 97.7 | 157 | 366 | 226 | 48.2 | 105 | 220 | 2620 | 53.2 | 163 | 94.3 | 108 | 63.3
CN1CCN(c2ccc3nc(-c4c(N)c5c(F)cccc5[nH]c4=O)[nH]c3c2)CC1 [Dovitinib] + COc1cc(Nc2ncc(F)c(Nc3ccc4c(n3)NC(=O)C(C)(C)O4)n2)cc(OC)c1OC [Tamatinib] (first compound 0.1 µM, partner dose 0.4 µM) | 230 | 49.7 | 33.1 | 101 | 70.8 | 277 | 145 | 101 | 174 | 180 | 113 | 108 | 170 | 160 | 164 | 47.3 | 117 | 128 | 30.3
Nc1nc(F)nc2c1ncn2[C@@H]1O[C@H](CO)[C@@H](O)[C@@H]1O [fludarabine] + COc1cc(Nc2ncc(F)c(Nc3ccc4c(n3)NC(=O)C(C)(C)O4)n2)cc(OC)c1OC [Tamatinib] (first compound 0.2 µM, partner dose 0.4 µM) | 1910 | 94 | 260 | 931 | 63 | 165 | 406 | 84.5 | 55.2 | 76.1 | 259 | 271 | 93.9 | 68.8 | 110 | 107 | 308 | 129 | 203
